Source: article PMC4384635, “Autoinhibition of Bruton's tyrosine kinase (Btk) and activation by soluble inositol hexakisphosphate” (eLife, 2015)
Results are given in words; binding and its absence hold for the method and conditions named.

The chains behind the UniProt entries cited, without tags or fusion partners. Where a name states a change or a piece, a line headed by the entry shows the natural chain unless it says otherwise. A line that says so, or that is headed by a name, gives the form on record, which may keep a tag or linker. Residues count along the entry.
full-length bovine Btk (residues 1 to 659) (Q3ZC95, form named): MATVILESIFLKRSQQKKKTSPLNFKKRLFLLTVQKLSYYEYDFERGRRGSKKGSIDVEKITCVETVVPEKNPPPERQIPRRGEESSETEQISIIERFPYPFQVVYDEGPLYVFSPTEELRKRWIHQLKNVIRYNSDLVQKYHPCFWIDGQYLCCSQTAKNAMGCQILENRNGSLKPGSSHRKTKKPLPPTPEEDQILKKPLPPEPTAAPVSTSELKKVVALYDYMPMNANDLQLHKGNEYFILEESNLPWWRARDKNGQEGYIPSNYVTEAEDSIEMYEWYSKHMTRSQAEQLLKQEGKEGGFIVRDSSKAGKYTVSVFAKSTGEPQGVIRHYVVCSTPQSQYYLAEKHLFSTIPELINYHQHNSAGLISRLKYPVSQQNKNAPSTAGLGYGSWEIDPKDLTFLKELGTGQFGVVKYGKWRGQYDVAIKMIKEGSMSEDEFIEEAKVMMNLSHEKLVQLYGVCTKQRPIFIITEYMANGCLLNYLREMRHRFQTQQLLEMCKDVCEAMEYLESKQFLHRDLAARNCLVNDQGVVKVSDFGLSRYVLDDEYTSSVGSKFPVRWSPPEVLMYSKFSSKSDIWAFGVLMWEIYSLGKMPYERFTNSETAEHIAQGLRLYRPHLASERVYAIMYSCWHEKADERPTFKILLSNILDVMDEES

Biological target: full-length bovine Btk (residues 1 to 659) (bovine) (UniProt Q3ZC95)
Experiment: SEC + other: multi-angle light scattering; in solution with IP6, Btk concentrations up to 30 μM; both purified

Substance: full-length bovine Btk (residues 1 to 659) (from UniProt Q3ZC95 1-659) (enzyme)
- binding: no binding (tested: up to 30 μM)
